{
  "sequences": {"note": "Chains of the proteins cited; added tags and fusions are not shown. Lines headed by an entry give the natural chain unless they say otherwise; changes in a name come on top.", "UniProt Q9H3R5": "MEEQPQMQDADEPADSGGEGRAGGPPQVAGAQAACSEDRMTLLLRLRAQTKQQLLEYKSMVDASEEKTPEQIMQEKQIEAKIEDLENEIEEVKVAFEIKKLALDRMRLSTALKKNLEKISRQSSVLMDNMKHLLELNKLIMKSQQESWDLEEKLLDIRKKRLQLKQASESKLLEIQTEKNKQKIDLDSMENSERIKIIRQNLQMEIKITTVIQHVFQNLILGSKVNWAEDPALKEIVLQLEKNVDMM", "UniProt Q9H444": "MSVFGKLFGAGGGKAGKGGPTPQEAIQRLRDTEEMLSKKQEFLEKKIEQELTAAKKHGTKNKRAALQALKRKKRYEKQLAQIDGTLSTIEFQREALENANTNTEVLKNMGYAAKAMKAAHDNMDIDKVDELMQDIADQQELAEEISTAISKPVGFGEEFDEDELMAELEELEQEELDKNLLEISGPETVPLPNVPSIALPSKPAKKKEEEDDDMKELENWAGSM", "UniProt Q9H9V9": "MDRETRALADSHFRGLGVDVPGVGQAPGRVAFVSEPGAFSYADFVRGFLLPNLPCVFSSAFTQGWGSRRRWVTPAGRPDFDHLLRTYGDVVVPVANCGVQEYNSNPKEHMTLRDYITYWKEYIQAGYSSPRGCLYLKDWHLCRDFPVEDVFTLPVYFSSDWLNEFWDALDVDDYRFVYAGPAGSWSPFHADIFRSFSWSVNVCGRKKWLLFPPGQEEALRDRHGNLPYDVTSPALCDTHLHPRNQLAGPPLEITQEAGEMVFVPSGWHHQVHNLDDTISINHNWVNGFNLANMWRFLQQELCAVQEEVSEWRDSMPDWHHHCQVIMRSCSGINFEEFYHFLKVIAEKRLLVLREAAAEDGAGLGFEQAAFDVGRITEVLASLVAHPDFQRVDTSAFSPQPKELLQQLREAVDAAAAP", "UniProt Q9H2L5": "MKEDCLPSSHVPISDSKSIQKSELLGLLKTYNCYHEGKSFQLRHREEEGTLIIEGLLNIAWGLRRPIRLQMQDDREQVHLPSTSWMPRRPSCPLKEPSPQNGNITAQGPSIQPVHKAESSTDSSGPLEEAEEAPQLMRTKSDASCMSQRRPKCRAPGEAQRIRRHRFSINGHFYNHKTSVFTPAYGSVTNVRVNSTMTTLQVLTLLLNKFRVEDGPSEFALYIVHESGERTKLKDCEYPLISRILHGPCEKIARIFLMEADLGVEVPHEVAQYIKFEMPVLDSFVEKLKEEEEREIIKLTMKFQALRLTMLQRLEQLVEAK", "UniProt Q9H3H1": "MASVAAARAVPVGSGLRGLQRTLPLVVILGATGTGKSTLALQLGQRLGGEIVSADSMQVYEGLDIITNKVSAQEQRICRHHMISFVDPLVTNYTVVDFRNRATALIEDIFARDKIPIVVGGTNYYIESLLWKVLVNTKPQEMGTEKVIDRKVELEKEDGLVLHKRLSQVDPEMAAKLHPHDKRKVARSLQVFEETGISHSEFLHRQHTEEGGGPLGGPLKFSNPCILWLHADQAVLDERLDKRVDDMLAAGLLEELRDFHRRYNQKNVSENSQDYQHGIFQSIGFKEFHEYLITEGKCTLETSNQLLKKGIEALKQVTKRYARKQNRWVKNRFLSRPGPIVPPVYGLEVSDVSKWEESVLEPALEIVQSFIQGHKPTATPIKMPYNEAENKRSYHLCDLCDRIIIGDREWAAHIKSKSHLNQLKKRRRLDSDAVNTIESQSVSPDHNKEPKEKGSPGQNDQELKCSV", "UniProt Q9H6A9": "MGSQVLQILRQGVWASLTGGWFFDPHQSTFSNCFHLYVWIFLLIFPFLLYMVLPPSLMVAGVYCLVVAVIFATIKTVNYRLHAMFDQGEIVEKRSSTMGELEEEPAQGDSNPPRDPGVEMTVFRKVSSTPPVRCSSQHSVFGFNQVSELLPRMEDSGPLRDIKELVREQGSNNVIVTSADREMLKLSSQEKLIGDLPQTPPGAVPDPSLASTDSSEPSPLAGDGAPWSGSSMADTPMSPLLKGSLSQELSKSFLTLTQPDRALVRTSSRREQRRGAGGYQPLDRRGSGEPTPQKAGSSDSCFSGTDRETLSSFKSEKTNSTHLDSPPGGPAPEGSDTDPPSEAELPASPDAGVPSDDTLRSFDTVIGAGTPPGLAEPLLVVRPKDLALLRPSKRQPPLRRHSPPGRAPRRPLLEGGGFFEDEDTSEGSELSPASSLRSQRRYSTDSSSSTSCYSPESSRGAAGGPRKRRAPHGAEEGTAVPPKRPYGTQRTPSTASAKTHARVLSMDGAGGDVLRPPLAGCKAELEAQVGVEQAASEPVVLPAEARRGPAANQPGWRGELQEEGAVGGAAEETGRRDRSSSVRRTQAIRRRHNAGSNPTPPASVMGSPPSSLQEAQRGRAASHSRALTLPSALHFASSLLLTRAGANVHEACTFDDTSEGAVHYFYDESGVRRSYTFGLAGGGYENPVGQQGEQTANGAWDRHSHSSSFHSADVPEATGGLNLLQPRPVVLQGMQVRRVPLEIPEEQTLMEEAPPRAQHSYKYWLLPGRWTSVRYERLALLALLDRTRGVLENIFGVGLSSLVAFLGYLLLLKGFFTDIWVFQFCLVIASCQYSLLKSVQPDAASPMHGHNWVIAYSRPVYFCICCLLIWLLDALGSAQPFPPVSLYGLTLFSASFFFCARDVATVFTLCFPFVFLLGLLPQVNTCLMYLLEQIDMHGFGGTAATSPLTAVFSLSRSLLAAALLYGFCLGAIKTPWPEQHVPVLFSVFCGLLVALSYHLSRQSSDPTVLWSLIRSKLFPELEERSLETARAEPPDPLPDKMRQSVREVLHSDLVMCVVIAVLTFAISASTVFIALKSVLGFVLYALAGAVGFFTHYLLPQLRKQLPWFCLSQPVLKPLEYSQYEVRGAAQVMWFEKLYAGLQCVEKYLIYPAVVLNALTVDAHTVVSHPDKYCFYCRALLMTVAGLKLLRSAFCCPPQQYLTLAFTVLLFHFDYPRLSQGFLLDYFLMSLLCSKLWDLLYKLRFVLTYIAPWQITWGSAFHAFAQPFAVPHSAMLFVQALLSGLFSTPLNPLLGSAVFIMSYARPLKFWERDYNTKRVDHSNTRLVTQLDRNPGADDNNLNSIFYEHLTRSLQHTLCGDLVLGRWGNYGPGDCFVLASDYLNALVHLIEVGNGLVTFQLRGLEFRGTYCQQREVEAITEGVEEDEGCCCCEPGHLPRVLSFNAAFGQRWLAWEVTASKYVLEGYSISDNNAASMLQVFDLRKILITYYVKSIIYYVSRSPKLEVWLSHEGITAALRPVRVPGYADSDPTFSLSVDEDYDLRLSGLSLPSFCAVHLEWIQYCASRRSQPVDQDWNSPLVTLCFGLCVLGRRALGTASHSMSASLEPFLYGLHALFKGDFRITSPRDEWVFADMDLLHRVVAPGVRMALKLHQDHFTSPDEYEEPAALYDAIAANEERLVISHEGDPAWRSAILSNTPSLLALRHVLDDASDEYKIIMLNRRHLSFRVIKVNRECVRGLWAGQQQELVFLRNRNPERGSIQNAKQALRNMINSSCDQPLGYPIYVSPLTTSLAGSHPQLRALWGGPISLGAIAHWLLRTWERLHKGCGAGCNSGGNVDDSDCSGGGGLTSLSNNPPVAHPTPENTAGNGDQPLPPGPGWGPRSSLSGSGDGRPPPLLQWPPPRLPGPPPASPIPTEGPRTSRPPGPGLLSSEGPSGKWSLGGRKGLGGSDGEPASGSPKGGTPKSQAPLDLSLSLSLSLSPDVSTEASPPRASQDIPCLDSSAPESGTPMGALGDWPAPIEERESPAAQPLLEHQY", "UniProt Q9HAB8": "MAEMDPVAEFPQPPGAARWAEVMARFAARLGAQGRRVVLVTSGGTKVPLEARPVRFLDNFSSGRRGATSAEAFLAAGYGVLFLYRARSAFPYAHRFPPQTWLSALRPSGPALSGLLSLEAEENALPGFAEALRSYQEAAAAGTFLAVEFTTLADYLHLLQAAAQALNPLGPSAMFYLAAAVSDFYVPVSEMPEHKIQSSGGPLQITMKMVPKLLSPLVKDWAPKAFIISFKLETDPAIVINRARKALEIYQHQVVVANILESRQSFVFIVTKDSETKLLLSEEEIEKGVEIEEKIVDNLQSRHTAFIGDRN", "UniProt Q9H2G4": "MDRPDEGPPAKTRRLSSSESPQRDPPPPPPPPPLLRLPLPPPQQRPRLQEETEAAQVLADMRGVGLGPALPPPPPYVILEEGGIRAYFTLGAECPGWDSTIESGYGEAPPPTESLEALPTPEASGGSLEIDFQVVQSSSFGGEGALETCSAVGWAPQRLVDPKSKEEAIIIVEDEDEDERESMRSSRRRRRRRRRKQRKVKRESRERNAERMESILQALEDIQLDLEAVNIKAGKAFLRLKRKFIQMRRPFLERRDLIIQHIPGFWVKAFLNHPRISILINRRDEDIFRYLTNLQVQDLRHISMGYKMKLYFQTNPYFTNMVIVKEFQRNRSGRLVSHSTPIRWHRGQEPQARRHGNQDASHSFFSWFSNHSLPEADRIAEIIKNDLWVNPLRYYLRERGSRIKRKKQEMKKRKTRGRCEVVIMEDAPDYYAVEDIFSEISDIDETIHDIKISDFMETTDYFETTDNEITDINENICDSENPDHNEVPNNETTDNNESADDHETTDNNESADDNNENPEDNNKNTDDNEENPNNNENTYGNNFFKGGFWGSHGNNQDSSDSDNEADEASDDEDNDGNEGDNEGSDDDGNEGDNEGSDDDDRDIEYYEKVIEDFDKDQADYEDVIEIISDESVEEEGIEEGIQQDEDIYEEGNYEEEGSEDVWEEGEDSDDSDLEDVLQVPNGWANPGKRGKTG", "UniProt Q9H7E9": "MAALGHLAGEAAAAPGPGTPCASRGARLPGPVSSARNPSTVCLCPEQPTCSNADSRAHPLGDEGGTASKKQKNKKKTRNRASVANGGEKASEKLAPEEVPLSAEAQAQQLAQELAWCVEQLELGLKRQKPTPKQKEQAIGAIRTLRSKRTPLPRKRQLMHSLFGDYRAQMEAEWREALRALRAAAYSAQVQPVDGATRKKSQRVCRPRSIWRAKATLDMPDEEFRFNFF"},
  "source": "the supplement of paper PMC12819154",
  "about": "“High-throughput peptide-centric local stability assay extends protein–ligand identification to membrane proteins, tissues and bacteria” (Nature Structural & Molecular Biology, 2025)",
  "note": "The list shows a part of the results. Most entries show no effect beyond the scatter of the controls.",
  "data": [
    {"compound": "Cc1nc(Nc2ncc(C(=O)Nc3c(C)cccc3Cl)s2)cc(N2CCN(CCO)CC2)n1 [dasatinib]", "test": "log2 fold change of tryptic peptide abundance, ligand vs vehicle (limited proteolysis) (log2 ratio); higher = more trypsin-susceptible (destabilized)", "conditions": "ligand concentration: 5 uM; sample: K562 cleared lysate", "values": [
      {"target": "CENPH (peptide sequence: QSSVLMDNMK, peptide start residue: 122) (UniProt Q9H3R5)", "log2 fold change": 0.0771},
      {"target": "CHMP4B (peptide sequence: KQEFLEKK, peptide start residue: 39) (UniProt Q9H444)", "log2 fold change": -0.293},
      {"target": "JMJD4 (peptide sequence: VDTSAFSPQPK, peptide start residue: 437) (UniProt Q9H9V9)", "log2 fold change": -0.577},
      {"target": "UniProt Q9H2L5 (peptide sequence: LKEEEER, peptide start residue: 351)", "log2 fold change": -0.0104},
      {"target": "TRIT1 (peptide sequence: CTLETSNQLLK, peptide start residue: 298) (UniProt Q9H3H1)", "log2 fold change": 0.233},
      {"target": "UniProt Q9H6A9 (peptide sequence: GELQEEGAVGGAAEETGRR, peptide start residue: 558)", "log2 fold change": 0.137},
      {"target": "PPCS (peptide sequence: WAEVMAR, peptide start residue: 19) (UniProt Q9HAB8)", "log2 fold change": -0.244},
      {"target": "TSPYL2 (peptide sequence: MDRPDEGPPAK, peptide start residue: 1) (UniProt Q9H2G4)", "log2 fold change": 0.462},
      {"target": "C8orf33 (peptide sequence: AKATLDMPDEEFR, peptide start residue: 213) (UniProt Q9H7E9)", "log2 fold change": -0.192}
    ]}
  ]
}
